From PMC7064343 come the findings set out here.

The chains behind the UniProt entries cited, without tags or fusion partners. Where a name states a change or a piece, a line headed by the entry shows the natural chain unless it says otherwise.
UniProt Q388L6: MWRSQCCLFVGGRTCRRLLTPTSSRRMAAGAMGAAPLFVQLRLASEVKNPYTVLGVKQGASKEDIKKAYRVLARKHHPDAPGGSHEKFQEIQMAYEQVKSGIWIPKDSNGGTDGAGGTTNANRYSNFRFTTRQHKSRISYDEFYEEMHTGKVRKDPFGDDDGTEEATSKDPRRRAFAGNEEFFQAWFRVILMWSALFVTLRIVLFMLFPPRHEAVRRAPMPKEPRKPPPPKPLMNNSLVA
UniProt Q38D74: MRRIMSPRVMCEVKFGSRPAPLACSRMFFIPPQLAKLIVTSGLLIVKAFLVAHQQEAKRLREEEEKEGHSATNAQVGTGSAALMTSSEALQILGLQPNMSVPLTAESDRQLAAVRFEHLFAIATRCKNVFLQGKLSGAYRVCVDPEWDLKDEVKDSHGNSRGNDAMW
UniProt Q388W2: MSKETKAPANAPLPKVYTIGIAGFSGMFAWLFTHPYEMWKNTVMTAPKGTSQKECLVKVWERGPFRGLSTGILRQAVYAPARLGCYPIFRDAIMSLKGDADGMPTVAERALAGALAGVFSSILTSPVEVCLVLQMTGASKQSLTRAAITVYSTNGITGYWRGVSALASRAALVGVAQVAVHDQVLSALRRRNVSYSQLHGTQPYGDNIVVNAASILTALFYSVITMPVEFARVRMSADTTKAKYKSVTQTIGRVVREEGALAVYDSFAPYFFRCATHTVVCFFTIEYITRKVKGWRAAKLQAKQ
UniProt Q38E31: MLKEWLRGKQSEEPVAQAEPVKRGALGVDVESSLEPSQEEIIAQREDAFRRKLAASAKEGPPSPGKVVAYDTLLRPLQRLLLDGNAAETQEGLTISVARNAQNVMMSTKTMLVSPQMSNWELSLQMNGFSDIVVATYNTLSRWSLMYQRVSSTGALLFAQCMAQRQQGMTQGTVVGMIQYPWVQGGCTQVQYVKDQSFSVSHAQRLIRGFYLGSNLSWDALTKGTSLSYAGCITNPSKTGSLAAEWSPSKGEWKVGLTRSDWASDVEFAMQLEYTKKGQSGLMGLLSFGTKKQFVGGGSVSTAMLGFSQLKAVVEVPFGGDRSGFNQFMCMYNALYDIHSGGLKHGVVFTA
UniProt Q38ED9: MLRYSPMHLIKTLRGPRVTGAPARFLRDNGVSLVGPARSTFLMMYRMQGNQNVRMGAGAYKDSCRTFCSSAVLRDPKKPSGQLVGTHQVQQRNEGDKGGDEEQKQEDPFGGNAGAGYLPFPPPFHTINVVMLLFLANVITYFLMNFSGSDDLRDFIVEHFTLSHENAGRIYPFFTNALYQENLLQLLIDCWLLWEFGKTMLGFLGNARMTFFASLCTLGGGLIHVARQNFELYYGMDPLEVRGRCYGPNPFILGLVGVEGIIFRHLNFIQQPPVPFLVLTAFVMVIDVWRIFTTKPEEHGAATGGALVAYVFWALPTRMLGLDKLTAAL

Results are given in words; binding and its absence hold for the method and conditions named. Binding seen in cells or lysates may run through a third protein. For part of these data: Binding calls can cover weak binding; strength is not graded here.

Test [1] concerns the target TbPam27-myc (C-terminally triple c-myc-tagged TbPam27) (Trypanosoma brucei) (UniProt Q388L6). Briefly: co-IP; Cells co-expressing LDH-DHFR-HA and TbPam27-myc, grown with 50 μM aminopterin and 1 mM sulfanilamide for 12 h (stalled presequence intermediate). Digitonin-solubilised mitochondrial extract; IP by the HA- or the myc-tag; immunoblot.
Test [2] shares this target. The experiment in a line: co-IP; Cells expressing one C-terminally triple myc- or HA-tagged bait. Mitochondria-enriched fraction solubilised in 1% digitonin, 20 mM Tris-HCl pH 7.4, 100 mM NaCl, 0.1 mM EDTA, 10% glycerol. Bait captured on anti-HA or anti-c-myc beads, 4°C, 1 h; immunoblot of the eluate. TbPam18-HA and TbPam16-HA were also tested in TbPam27 RNAi cells induced for two days.

Test [3] concerns the target TbPam16-HA (C-terminally triple HA-tagged TbPam16) (Trypanosoma brucei) (UniProt Q38D74). The test is described as above.
Test [4] has as its target TbPam27-HA (C-terminally triple HA-tagged TbPam27) (Trypanosoma brucei) (UniProt Q388L6). Briefly: co-IP; Cells co-expressing MCP12ΔI-myc and TbPam27-HA (stalled carrier intermediate). Digitonin-solubilised mitochondrial extract; IP by the HA- or the myc-tag; immunoblot.
The target of test [5] is MCP12ΔI-myc (truncated, C-terminally myc-tagged mitochondrial carrier protein MCP12) (T. brucei) (UniProt Q388W2). The test is described as above.

Turning to ATOM40 (from UniProt Q38E31), the binding entry in test [1] is “binds”.

For TimRhom I (from UniProt Q38ED9), the binding entry in test [2] is reported as “binds”; in test [3] it was “no binding”; in test [4] it was “binds”; in test [5], “no binding”; in test [1], “binds”.
